{"source": "PubChem BioAssay AID602196 (INSERM, 2012)", "test": "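Knock-downs that protect lung cancer cells from cisplatin or sensitise them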", "cell system": "human A549 lung cancer cells", "knock-down reagent": "siRNA pair against human genes", "duration": "48 h transfection before cisplatin; time from cisplatin to read-out not stated", "treatment": "cisplatin at a dose killing half of control-siRNA cells; exact dose and duration not given", "read-out": "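Cisplatin cell death as a shift from the 50% death seen with control siRNA; siRNAs toxic or growth-blocking alone scored 0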", "reading the numbers": "two-siRNA summed score (-2 to +2): higher = both siRNAs protect from cisplatin killing; -2 means both sensitise", "rule for the call": "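siRNAs harmful alone (LDH or WST-1) get 0; others get +1 for less and -1 for more cisplatin killing; genes are active when the two siRNAs give the same sign, summing to ±2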", "meaning of the calls": "active = both siRNAs shift cisplatin killing the same way; inactive = no consistent shift, or siRNA harmful alone", "note": "The deposit covers about 23,000 reagents; shown is a part drawn at random. 455 of them (2%) were called active. 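Active includes both protection and sensitisation; some change values fall well beyond the stated -50 to +50 range.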 Not all columns of the deposit are shown. Not stated in the record: the amount of reagent."}
{"gene":"FRMD7 (FERM domain containing 7)","two-siRNA summed score (-2 to +2)":0,"activity call":"inactive"}
{"gene":"LOC442444","two-siRNA summed score (-2 to +2)":1,"activity call":"inactive"}
{"gene":"FLJ35816 (retired record)","two-siRNA summed score (-2 to +2)":0,"activity call":"inactive"}
{"gene":"LOC441148","two-siRNA summed score (-2 to +2)":1,"activity call":"inactive"}
{"gene":"GC (GC vitamin D binding protein)","two-siRNA summed score (-2 to +2)":0,"activity call":"inactive"}
{"gene":"TPPP2 (tubulin polymerization promoting protein family member 2)","two-siRNA summed score (-2 to +2)":0,"activity call":"inactive"}
{"gene":"PREX1","two-siRNA summed score (-2 to +2)":0,"activity call":"inactive"}
{"gene":"CCNK (cyclin K)","two-siRNA summed score (-2 to +2)":0,"activity call":"inactive"}

Ordered by “two-siRNA summed score (-2 to +2)” (ascending): some entries from above.
{"gene":"TPPP2 (tubulin polymerization promoting protein family member 2)","two-siRNA summed score (-2 to +2)":0,"activity call":"inactive"}
{"gene":"PREX1","two-siRNA summed score (-2 to +2)":0,"activity call":"inactive"}

The listing continues:
{"gene":"RAB7A (RAB7A, member RAS oncogene family)","two-siRNA summed score (-2 to +2)":0,"activity call":"inactive"}
{"gene":"FRMD1 (FERM domain containing 1)","two-siRNA summed score (-2 to +2)":-1,"activity call":"inactive"}
{"gene":"ZKSCAN5 (zinc finger with KRAB and SCAN domains 5)","two-siRNA summed score (-2 to +2)":1,"activity call":"inactive"}
{"gene":"PLEKHH3 (pleckstrin homology, MyTH4 and FERM domain containing H3)","two-siRNA summed score (-2 to +2)":0,"activity call":"inactive"}
